Literature values, collected in US10273468B2 (priority 2016, dated 2019).
At least one structure is not confirmed: it was looked up by name or label, or the drawing left a doubt.

Test system: E. coli expressing Tet(47-55)
Settings: Tet(47-55) expressed in E. coli; cited from earlier work

CN(C)[C@@H]1C(O)=C(C(N)=O)C(=O)[C@@]2(O)C(O)=C3C(=O)c4c(O)cccc4[C@@](C)(O)[C@H]3C[C@@H]12 [tetracycline]
increase in minimum inhibitory concentration (MIC): 16-64 fold
